# Some of the results follow.
# Experiments:
# Assay in all cases: glycan array binding signal (z-score within array); higher = stronger binding
# Conditions in all cases: glycan notation: IUPAC condensed, linker removed
# [1] = molecular target: GlcNAc(b1-3)Gal(b1-4)GlcNAc(b1-3)Gal(b1-4)GlcNAc(b1-3)Gal(b1-4)GlcNAc(b1-3)Gal(b1-4)GlcNAc(b1-2)[GlcNAc(b1-3)Gal(b1-4)GlcNAc(b1-3)Gal(b1-4)GlcNAc(b1-3)Gal(b1-4)GlcNAc(b1-3)Gal(b1-4)GlcNAc(b1-6)]Man(a1-6)[GlcNAc(b1-3)Gal(b1-4)GlcNAc(b1-3)Gal(b1-4)GlcNAc(b1-3)Gal(b1-4)GlcNAc(b1-3)Gal(b1-4)GlcNAc(b1-2)Man(a1-3)]Man(b1-4)GlcNAc(b1-4)[Fuc(a1-6)]GlcNAc
# In short: (§1)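 The binding signal is a Z-score computed within each array and averaged over linkers. Arrays of the same protein sequence at different concentrations or buffers were also averaged together. Data originate from 3228 arrays in the Consortium for Functional Glycomics database, kept only where the protein sequence was available.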
# [2] = molecular target: GlcNAc(b1-3)Gal(b1-4)GlcNAc(b1-3)Gal(b1-4)GlcNAc(b1-3)GalNAc
# In short: as §1
# [3] = molecular target: GlcNAc(b1-3)Gal(b1-4)GlcNAc(b1-3)GalNAc
# In short: as §1
# [4] = molecular target: GlcNAc(b1-3)Gal(b1-4)GlcNAc(b1-3)[GlcNAc(b1-3)Gal(b1-4)GlcNAc(b1-3)]GalNAc
# In short: as §1
# [5] = molecular target: GlcNAc(b1-3)Gal(b1-4)GlcNAc(b1-6)[Gal(b1-3)]GalNAc
# In short: as §1
# [6] = molecular target: GlcNAc(b1-3)Gal(b1-4)GlcNAc(b1-6)[GlcNAc(b1-3)Gal(b1-3)]GalNAc
# In short: as §1
# [7] = molecular target: GlcNAc(b1-3)Gal(b1-4)GlcNAc(b1-6)[GlcNAc(b1-3)]Gal(b1-4)GlcNAc
# In short: as §1
# GlcNAc(b1-3)GalNAc = molecular target: GlcNAc(b1-3)GalNAc
# In short: as §1
# GlcNAc(b1-3)Man = molecular target: GlcNAc(b1-3)Man
# In short: as §1
# [8] = molecular target: GlcNAc(b1-3)[GlcNAc(b1-4)][GlcNAc(b1-6)]GlcNAc
# In short: as §1
# [9] = molecular target: GlcNAc(b1-3)[GlcNAc(b1-6)]Gal(b1-4)GlcNAc
# In short: as §1
# [10] = molecular target: GlcNAc(b1-3)[GlcNAc(b1-6)]GalNAc
# In short: as §1
# [11] = molecular target: GlcNAc(b1-4)Gal(b1-4)GlcNAc
# In short: as §1
# GlcNAc(b1-4)GlcNAc = molecular target: GlcNAc(b1-4)GlcNAc
# In short: as §1
# [12] = molecular target: GlcNAc(b1-4)GlcNAc(b1-4)GlcNAc
# In short: as §1
# [13] = molecular target: GlcNAc(b1-4)GlcNAc(b1-4)GlcNAc(b1-4)GlcNAc(b1-4)GlcNAc
# In short: as §1
# [14] = molecular target: GlcNAc(b1-4)GlcNAc(b1-4)GlcNAc(b1-4)GlcNAc(b1-4)GlcNAc(b1-4)GlcNAc
# In short: as §1
# [15] = molecular target: GlcNAc(b1-4)[GlcNAc(b1-6)]GalNAc
# In short: as §1
# [16] = molecular target: GlcNAc(b1-6)Gal(b1-4)GlcNAc
# In short: as §1
# GlcNAc(b1-6)GalNAc = molecular target: GlcNAc(b1-6)GalNAc
# In short: as §1
# [17] = molecular target: GlcNAc6S(b1-3)Gal(b1-4)GlcNAc
# In short: as §1
# Kdn(a2-3)Gal(b1-3)GalNAc = molecular target: Kdn(a2-3)Gal(b1-3)GalNAc
# In short: as §1
# Kdn(a2-3)Gal(b1-3)GlcNAc = molecular target: Kdn(a2-3)Gal(b1-3)GlcNAc
# In short: as §1
# Kdn(a2-3)Gal(b1-4)Glc = molecular target: Kdn(a2-3)Gal(b1-4)Glc
# In short: as §1
# Kdn(a2-3)Gal(b1-4)GlcNAc = molecular target: Kdn(a2-3)Gal(b1-4)GlcNAc
# In short: as §1
# [18] = molecular target: Kdn(a2-3)Gal(b1-4)[Fuc(a1-3)]GlcNAc
# In short: as §1
# Kdn(a2-6)Gal(b1-4)GlcNAc = molecular target: Kdn(a2-6)Gal(b1-4)GlcNAc
# In short: as §1
# [19] = molecular target: Man(a1-2)Man(a1-2)Man(a1-3)Man
# In short: as §1
# [20] = molecular target: Man(a1-2)Man(a1-2)Man(a1-6)[Man(a1-3)]Man
# In short: as §1
# Man(a1-2)Man(a1-3)Man = molecular target: Man(a1-2)Man(a1-3)Man
# In short: as §1
# [21] = molecular target: Man(a1-2)Man(a1-3)[Man(a1-2)Man(a1-6)]Man
# In short: as §1
# [22] = molecular target: Man(a1-2)Man(a1-3)[Man(a1-2)Man(a1-6)]Man(a1-6)[Man(a1-2)Man(a1-2)Man(a1-3)]Man
# In short: as §1
# [23] = molecular target: Man(a1-2)Man(a1-3)[Man(a1-2)Man(a1-6)]Man(a1-6)[Man(a1-2)Man(a1-2)Man(a1-3)]Man(b1-4)GlcNAc(b1-4)GlcNAc
# In short: as §1
# [24] = molecular target: Man(a1-2)Man(a1-3)[Man(a1-6)]Man(a1-6)[Man(a1-2)Man(a1-3)]Man(b1-4)GlcNAc(b1-4)GlcNAc
# In short: as §1
# [25] = molecular target: Man(a1-2)Man(a1-6)[Man(a1-3)]Man(a1-6)[Man(a1-2)Man(a1-2)Man(a1-3)]Man
# In short: as §1
# [26] = molecular target: Man(a1-2)Man(a1-6)[Man(a1-3)]Man(a1-6)[Man(a1-2)Man(a1-2)Man(a1-3)]Man(b1-4)GlcNAc(b1-4)GlcNAc
# In short: as §1
# Man(a1-3)[Man(a1-6)]Man = molecular target: Man(a1-3)[Man(a1-6)]Man
# In short: as §1
binder,measurement,setting,value
SP15308C-bot-338-23-338 (Bacteroides ovatus) (protein) DEWTDEQFKQLISFKTQPGGWGVTDVHVRYANSAKYTYNLPVLVSGSTDNTDDRLVSFSLRDDTLDILNFEKFGNRPELYFRELPQKYYSFPKELTIPAGQSHALLPIEFSLDGLDDSQKWALPLKVCEDANGTYAVNPRKYYRTAVLRPILFNEFSGRFSGSSLLGTMAGESDIKFSSTEIKLNVVTDSIVFFYAGQRTEDYEDRINYKVFLQFTGDKVDSKKDLYKMKIWAENEKLKFNSYSTPTYKVSSEMDATKTYLKHTYIVISDIDFDFVDYTSVPNYEIEYNMKGGLSVSRDLDTRKPDEDQGSDSKWW,glycan array binding signal (z-score),[1],1.04
same,glycan array binding signal (z-score),[2],-0.324
same,glycan array binding signal (z-score),[3],-0.131
same,glycan array binding signal (z-score),[4],0.031
same,glycan array binding signal (z-score),[5],-0.292
same,glycan array binding signal (z-score),[6],0.059
same,glycan array binding signal (z-score),[7],-0.109
same,glycan array binding signal (z-score),GlcNAc(b1-3)GalNAc,-0.138
same,glycan array binding signal (z-score),GlcNAc(b1-3)Man,-0.56
same,glycan array binding signal (z-score),[8],-0.055
same,glycan array binding signal (z-score),[9],-0.145
same,glycan array binding signal (z-score),[10],-0.487
same,glycan array binding signal (z-score),[11],-0.205
same,glycan array binding signal (z-score),GlcNAc(b1-4)GlcNAc,-0.453
same,glycan array binding signal (z-score),[12],-0.098
same,glycan array binding signal (z-score),[13],-0.666
same,glycan array binding signal (z-score),[14],-0.503
same,glycan array binding signal (z-score),[15],0.064
same,glycan array binding signal (z-score),[16],-0.182
same,glycan array binding signal (z-score),GlcNAc(b1-6)GalNAc,-0.218
same,glycan array binding signal (z-score),[17],-0.422
same,glycan array binding signal (z-score),Kdn(a2-3)Gal(b1-3)GalNAc,-0.034
same,glycan array binding signal (z-score),Kdn(a2-3)Gal(b1-3)GlcNAc,0.04
same,glycan array binding signal (z-score),Kdn(a2-3)Gal(b1-4)Glc,-0.488
same,glycan array binding signal (z-score),Kdn(a2-3)Gal(b1-4)GlcNAc,0.112
same,glycan array binding signal (z-score),[18],-0.494
same,glycan array binding signal (z-score),Kdn(a2-6)Gal(b1-4)GlcNAc,-0.233
same,glycan array binding signal (z-score),[19],0.082
same,glycan array binding signal (z-score),[20],-0.484
same,glycan array binding signal (z-score),Man(a1-2)Man(a1-3)Man,0.722
same,glycan array binding signal (z-score),[21],-0.446
same,glycan array binding signal (z-score),[22],0.121
same,glycan array binding signal (z-score),[23],0.032
same,glycan array binding signal (z-score),[24],-0.813
same,glycan array binding signal (z-score),[25],-0.109
same,glycan array binding signal (z-score),[26],-0.179
same,glycan array binding signal (z-score),Man(a1-3)[Man(a1-6)]Man,0.033

# Given as tab-separated lines: entries from further up
binder	measurement	setting	value
SP15308C-bot-338-23-338 (Bacteroides ovatus) (protein) DEWTDEQFKQLISFKTQPGGWGVTDVHVRYANSAKYTYNLPVLVSGSTDNTDDRLVSFSLRDDTLDILNFEKFGNRPELYFRELPQKYYSFPKELTIPAGQSHALLPIEFSLDGLDDSQKWALPLKVCEDANGTYAVNPRKYYRTAVLRPILFNEFSGRFSGSSLLGTMAGESDIKFSSTEIKLNVVTDSIVFFYAGQRTEDYEDRINYKVFLQFTGDKVDSKKDLYKMKIWAENEKLKFNSYSTPTYKVSSEMDATKTYLKHTYIVISDIDFDFVDYTSVPNYEIEYNMKGGLSVSRDLDTRKPDEDQGSDSKWW	glycan array binding signal (z-score)	[7]	-0.109
same	glycan array binding signal (z-score)	GlcNAc(b1-3)GalNAc	-0.138

# From the supplement of paper PMC8728848
